Results deposited as PubChem BioAssay AID1224826 (NIAID, 2016)
The whole screen tested about 17,000 reagents; shown is an unselected part. About 1,110 of all reagents (6.6%) were called active. 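Active means lowered or raised reporter signal; replicate intensities are raw and not normalised per plate.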 Reagents against one gene are numbered here. Further read-outs or replicates are left out here.

- Aim: 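Regulators of Tlr4 signalling leading to Tnf-alpha expression in macrophages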 (primary screen)
- System: RAW264.7 G9 macrophages from mouse bearing reporters for p65 (GFP) and the Tnf promoter (mCherry)
- Reagents: siRNA pool against mouse genes, 100 nM
- Timing: 16 h of LPS stimulation, after 2 days of siRNA transfection
- Treatment: bacterial lipopolysaccharide (Salmonella minnesota R595), 10 ng/ml
- Read-out: 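Nuclear mCherry signal of the Tnf promoter reporter measured by imaging after background removal, scaled to each plate median and turned into robust z-scores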
- Reading the numbers: Tnf reporter robust z-score: higher = stronger Tnf promoter reporter signal after LPS; Tnf reporter intensity: higher = stronger Tnf promoter reporter signal
- Call rule: 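a well counts as active at a score of -1.3 or below (Tlr4 knock-down control median) or above 3 (raised signal); controls and wells holding fewer than 50 cells are excluded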
- Meaning of the calls: active = Tnf reporter clearly lowered or raised; inactive = no clear change in Tnf reporter

Gene | reagent | Tnf reporter robust z-score | fewer than 50 cells in well | Tnf reporter intensity, replicate 1 | Outcome
Vps36 | 1 | 3.05 | enough cells in well | 272 | active
Srd5a1 | 1 | -0.6 | enough cells in well | 207 | inactive
Xrcc3 | 1 | -0.15 | enough cells in well | 202 | inactive
Zfp422 | 1 | -0.17 | enough cells in well | 166 | inactive
Zfp82 | 1 | -0.25 | enough cells in well | 143 | inactive
Or10h1 | 1 | 0.42 | enough cells in well | 344 | inactive
Srpk2 | 1 | – | fewer than 50 cells per well; well left out of calls | 257 | inactive
Fam221a | 1 | 1.81 | enough cells in well | 362 | inactive
Dlg4 | 1 | – | fewer than 50 cells per well; well left out of calls | 127 | inactive
Map3k3 | 1 | -0.94 | enough cells in well | 134 | inactive
St3gal4 | 1 | -0.63 | enough cells in well | 70 | inactive
Tmprss11g | 1 | -1.04 | enough cells in well | 123 | inactive
Sgta | 1 | 0.55 | enough cells in well | 96.1 | inactive
Omt2b | 1 | 2.14 | enough cells in well | 281 | inactive
Fbf1 | 1 | -0.76 | enough cells in well | 222 | inactive
Ptgfr | 1 | -0.44 | enough cells in well | 288 | inactive
Tmem198 | 1 | -1.29 | enough cells in well | 101 | inactive
Bcl3 | 1 | -0.62 | enough cells in well | 97.9 | inactive
Rgp1 | 1 | -0.35 | enough cells in well | 277 | inactive
Tpsb2 | 1 | -1.22 | enough cells in well | 120 | inactive
2010204K13Rik | 1 | – | fewer than 50 cells per well; well left out of calls | 152 | inactive
Srd5a3 | 1 | -1.05 | enough cells in well | 69.1 | inactive
Slc23a2 | 1 | 2.51 | enough cells in well | 172 | inactive
Aoc1l2 | 1 | -0.64 | enough cells in well | 244 | inactive
Lyset | 1 | -0.56 | enough cells in well | 183 | inactive
Gm4814 | 1 | -0.24 | enough cells in well | 145 | inactive
Tcf7l2 | 1 | -0.38 | enough cells in well | 222 | inactive
Pemt | 1 | -1.66 | enough cells in well | 69.2 | active
Stk24 | 1 | 0.39 | enough cells in well | 197 | inactive
Ceacam14 | 1 | 0.35 | enough cells in well | 169 | inactive
Slc17a5 | 1 | 0.12 | enough cells in well | 230 | inactive
Klhl36 | 1 | -0.3 | enough cells in well | 181 | inactive
Eng | 1 | 0.31 | enough cells in well | 222 | inactive
Or9m2 | 1 | -1.31 | enough cells in well | 116 | active
Tfg | 1 | 0.8 | enough cells in well | 268 | inactive
Cfap97 | 1 | – | fewer than 50 cells per well; well left out of calls | 145 | inactive
Ak1 | 1 | 2.15 | enough cells in well | 166 | inactive
Gzmb | 1 | 0.43 | enough cells in well | 309 | inactive
Mgme1 | 1 | -0.11 | enough cells in well | 163 | inactive
Rbfox2 | 1 | 4.53 | enough cells in well | 360 | active
Mrpl43 | 1 | 0.69 | enough cells in well | 168 | inactive
Fbxl2 | 1 | 0.46 | enough cells in well | 269 | inactive
Galnt11 | 1 | 1.06 | enough cells in well | 366 | inactive
Mall | 1 | -0.97 | enough cells in well | 78.9 | inactive
Snx19 | 1 | – | fewer than 50 cells per well; well left out of calls | 81.1 | inactive
Krtap5-4 | 1 | -0.63 | enough cells in well | 144 | inactive
Tagln3 | 1 | -1.68 | enough cells in well | 53.6 | active
Ap2b1 | 1 | – | fewer than 50 cells per well; well left out of calls | 79.4 | inactive
Eps15l1 | 1 | 1.55 | enough cells in well | 366 | inactive
Mtr | 1 | 0.36 | enough cells in well | 278 | inactive
Gja10 | 1 | -0.37 | enough cells in well | 215 | inactive
4930599N23Rik | 1 | – | fewer than 50 cells per well; well left out of calls | 335 | inactive
Atrnl1 | 1 | 1.53 | enough cells in well | 281 | inactive
1700028K03Rik | 1 | 0.96 | enough cells in well | 256 | inactive
Cyp2j13 | 1 | -0.65 | enough cells in well | 143 | inactive
Dmpk | 1 | 1.69 | enough cells in well | 324 | inactive
Txnl4a | 1 | -0.98 | enough cells in well | 51.4 | inactive
Txnl4a | 2 | -1.57 | enough cells in well | 99.9 | active

Already shown: an excerpt of the list.
Gene | reagent | Tnf reporter robust z-score | fewer than 50 cells in well | Tnf reporter intensity, replicate 1 | Outcome
Krtap5-4 | 1 | -0.63 | enough cells in well | 144 | inactive
Tagln3 | 1 | -1.68 | enough cells in well | 53.6 | active
Ap2b1 | 1 | – | fewer than 50 cells per well; well left out of calls | 79.4 | inactive
